According to PMC10689778:
These are yes or no findings as the source states them, for the method shown. In cells and extracts the contact can be indirect. Here binding means that the protein was enriched with, or labelled near, the bait; the list need not be complete.

Amino acid sequences for entries named in this document (tags omitted). Residues count along the entry.
UniProt O75460, residues 19-977: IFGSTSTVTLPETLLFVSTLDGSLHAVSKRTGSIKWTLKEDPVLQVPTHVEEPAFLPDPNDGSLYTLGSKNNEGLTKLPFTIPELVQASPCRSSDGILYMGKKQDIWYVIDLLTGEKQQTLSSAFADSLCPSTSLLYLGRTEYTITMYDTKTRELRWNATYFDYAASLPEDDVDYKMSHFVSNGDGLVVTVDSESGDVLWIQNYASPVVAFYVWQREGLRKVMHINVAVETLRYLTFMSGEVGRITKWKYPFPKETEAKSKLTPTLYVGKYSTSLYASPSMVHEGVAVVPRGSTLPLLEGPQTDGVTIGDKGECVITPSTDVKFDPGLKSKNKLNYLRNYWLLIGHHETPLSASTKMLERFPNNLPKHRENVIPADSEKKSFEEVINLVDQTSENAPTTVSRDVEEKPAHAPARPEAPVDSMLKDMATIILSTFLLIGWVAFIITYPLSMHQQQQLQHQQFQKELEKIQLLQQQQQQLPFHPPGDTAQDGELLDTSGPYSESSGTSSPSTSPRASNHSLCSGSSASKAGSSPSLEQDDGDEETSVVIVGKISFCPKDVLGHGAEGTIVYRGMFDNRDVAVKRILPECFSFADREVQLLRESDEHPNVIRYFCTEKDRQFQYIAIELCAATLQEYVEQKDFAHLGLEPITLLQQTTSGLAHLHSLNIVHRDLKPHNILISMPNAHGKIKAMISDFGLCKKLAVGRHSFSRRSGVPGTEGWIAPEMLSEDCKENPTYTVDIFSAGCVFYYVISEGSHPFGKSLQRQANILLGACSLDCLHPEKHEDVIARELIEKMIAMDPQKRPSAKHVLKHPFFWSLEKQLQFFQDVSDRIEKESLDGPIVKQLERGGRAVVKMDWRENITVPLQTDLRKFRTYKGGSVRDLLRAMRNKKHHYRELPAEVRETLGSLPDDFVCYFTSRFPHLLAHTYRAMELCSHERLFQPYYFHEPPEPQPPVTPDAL
UniProt P28799, residues 18-593: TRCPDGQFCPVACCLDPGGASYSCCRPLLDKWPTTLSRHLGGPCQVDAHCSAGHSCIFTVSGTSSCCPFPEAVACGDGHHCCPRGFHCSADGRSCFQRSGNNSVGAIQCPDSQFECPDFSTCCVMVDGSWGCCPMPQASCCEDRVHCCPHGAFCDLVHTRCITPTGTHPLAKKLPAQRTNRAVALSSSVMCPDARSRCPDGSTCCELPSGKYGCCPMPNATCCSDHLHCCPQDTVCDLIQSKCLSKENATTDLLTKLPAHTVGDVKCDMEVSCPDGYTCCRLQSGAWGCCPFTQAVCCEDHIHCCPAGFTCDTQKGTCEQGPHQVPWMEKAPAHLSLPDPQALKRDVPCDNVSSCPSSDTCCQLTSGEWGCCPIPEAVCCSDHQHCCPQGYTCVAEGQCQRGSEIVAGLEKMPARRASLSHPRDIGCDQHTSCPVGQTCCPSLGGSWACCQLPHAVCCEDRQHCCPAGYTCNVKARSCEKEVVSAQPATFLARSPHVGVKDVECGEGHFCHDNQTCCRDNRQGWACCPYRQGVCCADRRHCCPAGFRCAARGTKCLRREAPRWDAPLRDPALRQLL

Target: Myc-IRE1α (inositol-requiring enzyme 1α) (human) (UniProt O75460)
Assay: affinity purification with mass spectrometry; C28/I2 cells transfected with pcDNA3.1(−)-Myc-IRE1α, lysed in IP buffer after 48 h, anti-Myc antibody overnight at 4 °C, magnetic beads washed five times; label-free quantitative proteomics

binding: binds
Substance: progranulin (PGRN) (from UniProt P28799 18-593)
